Reference: patent US20250340662A1
These are yes or no findings as the source states them, for the method shown. Some entries that bind do so weakly or less than the wild type.

Chains of the proteins cited; added tags and fusions are not shown. Lines headed by an entry give the natural chain unless they say otherwise; changes in a name come on top.
UniProt P16070: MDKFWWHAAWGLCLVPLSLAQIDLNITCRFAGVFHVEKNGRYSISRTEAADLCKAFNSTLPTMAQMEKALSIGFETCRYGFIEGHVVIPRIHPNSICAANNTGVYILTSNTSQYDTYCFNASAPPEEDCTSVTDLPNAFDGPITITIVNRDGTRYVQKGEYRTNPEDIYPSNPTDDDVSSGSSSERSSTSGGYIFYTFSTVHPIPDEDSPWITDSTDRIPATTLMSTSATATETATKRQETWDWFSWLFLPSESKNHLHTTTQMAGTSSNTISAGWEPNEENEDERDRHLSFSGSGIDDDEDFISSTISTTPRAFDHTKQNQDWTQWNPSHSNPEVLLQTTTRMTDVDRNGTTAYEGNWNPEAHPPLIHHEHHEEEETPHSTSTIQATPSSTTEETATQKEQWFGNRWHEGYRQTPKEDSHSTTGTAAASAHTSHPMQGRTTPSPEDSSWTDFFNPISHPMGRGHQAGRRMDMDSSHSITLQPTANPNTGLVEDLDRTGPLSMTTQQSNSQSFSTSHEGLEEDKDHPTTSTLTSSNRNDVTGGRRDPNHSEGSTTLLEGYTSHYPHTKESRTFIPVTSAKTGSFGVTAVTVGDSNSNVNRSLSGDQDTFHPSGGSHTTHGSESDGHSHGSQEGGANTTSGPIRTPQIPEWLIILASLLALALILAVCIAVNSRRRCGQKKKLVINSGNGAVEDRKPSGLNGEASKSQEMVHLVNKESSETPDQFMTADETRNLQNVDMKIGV

Assays:
[1] = target: Cynomolgus v6-peptide (cynomolgus); assay: SPR SCK, antibody immobilised
[2] = target: Human CD44v6 iso4-Fc (human) (UniProt P16070); assay: SPR SCK, antibody immobilised

binding [1] | binding [2] | Binder
binds | binds | AL-MN114-71 IgG1 LALA IAHA (antibody, V domains shown) VH: EVQLLESGGGLVQPGGSLRLSCAASGFSFRSFAMSWVRQAPGKGLEWVSAISGGGSSTFYADSVKGRFTISRDNSKNTLYLQMNSLRAEDTAVYYCARHYYSDSDYRSSAAMDYWGQGTLVTVSS VL: DIQMTQSPSSLSASVGDRVTITCRASQSISSYLNWYQQKPGKAPKLLIYAASTLQSGVPSRFSGSGSGTDFTLTISSLQPEDFATYYCQQDLYLLTFGQGTKLEIK
binds | binds | AL-MN114-444 IgG1 LALA IAHA (antibody, V domains shown) VH: EVQLLESGGGLVQPGGSLRLSCAASGFTFRSFAMSWVRQAPGKGLEWVSAISGGGSSTFYADSVKGRFTISRDNSKNTLYLQMNSLRAEDTAVYYCARHYYSDSDYRSSAAMDYWGQGTLVTVSS VL: DIQMTQSPSSLSASVGDRVTITCRASQSIGSYLNWYQQKPGKAPKLLIYSASSLQSGVPSRFSGSGSGTDFTLTISSLQPEDFATYYCQQDLYLLTFGQGTKLEIK

Continued, binder first:

Binder | binding [1] | binding [2]
AL-MN114-132 IgG1 LALA (antibody, V domains shown) VH: EVQLLESGGGLVQPGGSLRLSCAASGFTFSSYAMSWVRQAPGKGLEWVSAISGGGSSTYYADSVKGRFTISRDNSKNTLYLQMNSLRAEDTAVYYCARHYYSDSDYRSSAAMDYWGQGTLVTVSS VL: DIQMTQSPSSLSASVGDRVTITCRASQSISSYLNWYQQKPGKAPKLLIYAASSLQSGVPSRFSGSGSGTDFTLTISSLQPEDFATYYCQQDLYLLTFGQGTKLEIK | binds | –
AL-MN114-465 IgG1 LALA IAHA (antibody, V domains shown) VH: EVQLLESGGGLVQPGGSLRLSCAASGFSFGSYAMSWVRQAPGKGLEWVSAISAGGSSTFYADSVKGRFTISRDNSKNTLYLQMNSLRAEDTAVYYCARHYYSDSDYRSSAAMDYWGQGTLVTVSS VL: DIQMTQSPSSLSASVGDRVTITCRASQSISSYLNWYQQKPGKAPKLLIYTASSLQSGVPSRFSGSGSGTDFTLTISSLQPEDFATYYCQQDLYLLTFGQGTKLEIK | binds | binds
AL-MN114-132 IgG1 LALA IAHA (antibody, V domains shown) VH: EVQLLESGGGLVQPGGSLRLSCAASGFTFSSYAMSWVRQAPGKGLEWVSAISGGGSSTYYADSVKGRFTISRDNSKNTLYLQMNSLRAEDTAVYYCARHYYSDSDYRSSAAMDYWGQGTLVTVSS VL: DIQMTQSPSSLSASVGDRVTITCRASQSISSYLNWYQQKPGKAPKLLIYAASSLQSGVPSRFSGSGSGTDFTLTISSLQPEDFATYYCQQDLYLLTFGQGTKLEIK | binds | –
